This passage reports binding results from article PMC2238814.

Amino acid sequences for entries named in this document (tags omitted).
UniProt P40460: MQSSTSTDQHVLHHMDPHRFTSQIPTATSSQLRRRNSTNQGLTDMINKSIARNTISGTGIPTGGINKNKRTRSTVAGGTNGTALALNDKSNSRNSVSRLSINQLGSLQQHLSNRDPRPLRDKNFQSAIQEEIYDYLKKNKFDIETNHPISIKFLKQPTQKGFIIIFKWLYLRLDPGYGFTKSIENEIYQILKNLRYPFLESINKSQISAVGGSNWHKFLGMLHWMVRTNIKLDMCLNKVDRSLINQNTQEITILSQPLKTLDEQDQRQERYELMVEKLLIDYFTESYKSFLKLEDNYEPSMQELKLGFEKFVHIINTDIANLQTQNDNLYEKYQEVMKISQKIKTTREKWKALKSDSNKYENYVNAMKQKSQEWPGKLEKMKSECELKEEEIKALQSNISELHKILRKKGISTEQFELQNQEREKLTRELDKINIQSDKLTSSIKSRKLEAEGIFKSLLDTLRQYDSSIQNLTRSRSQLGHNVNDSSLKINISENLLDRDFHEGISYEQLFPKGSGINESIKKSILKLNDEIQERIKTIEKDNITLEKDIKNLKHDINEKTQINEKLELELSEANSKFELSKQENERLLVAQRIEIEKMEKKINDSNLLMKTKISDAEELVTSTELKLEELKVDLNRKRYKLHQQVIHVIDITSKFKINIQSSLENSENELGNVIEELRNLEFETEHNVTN
UniProt P40014: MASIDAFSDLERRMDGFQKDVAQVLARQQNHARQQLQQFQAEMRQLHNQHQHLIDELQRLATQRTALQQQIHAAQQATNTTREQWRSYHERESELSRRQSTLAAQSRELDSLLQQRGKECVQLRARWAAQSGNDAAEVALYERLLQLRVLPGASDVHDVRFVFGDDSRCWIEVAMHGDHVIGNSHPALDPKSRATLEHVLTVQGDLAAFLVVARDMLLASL
UniProt Q02732: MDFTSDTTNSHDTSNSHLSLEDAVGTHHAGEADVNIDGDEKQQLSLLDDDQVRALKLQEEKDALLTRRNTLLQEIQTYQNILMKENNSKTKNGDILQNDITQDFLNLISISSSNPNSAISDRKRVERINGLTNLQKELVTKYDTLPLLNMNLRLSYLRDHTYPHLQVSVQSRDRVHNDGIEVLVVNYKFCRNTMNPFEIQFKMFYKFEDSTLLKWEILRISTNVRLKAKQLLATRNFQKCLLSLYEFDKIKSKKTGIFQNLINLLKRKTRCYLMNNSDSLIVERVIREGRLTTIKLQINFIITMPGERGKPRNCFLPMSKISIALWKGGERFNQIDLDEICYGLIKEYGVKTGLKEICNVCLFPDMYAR

Assay in all cases: co-IP; anti-myc immunoprecipitation from lysates of log-phase yeast grown at 30°C, wild-type or ybp2Δ strains; Western blot for Ctf19, HA-tagged or myc-tagged proteins
(In general: A western blot detects proteins with antibodies after separation by electrophoresis.)

In one assay the target is T1, Mtw1-myc (S. cerevisiae) (UniProt P39731).
T1 sequence: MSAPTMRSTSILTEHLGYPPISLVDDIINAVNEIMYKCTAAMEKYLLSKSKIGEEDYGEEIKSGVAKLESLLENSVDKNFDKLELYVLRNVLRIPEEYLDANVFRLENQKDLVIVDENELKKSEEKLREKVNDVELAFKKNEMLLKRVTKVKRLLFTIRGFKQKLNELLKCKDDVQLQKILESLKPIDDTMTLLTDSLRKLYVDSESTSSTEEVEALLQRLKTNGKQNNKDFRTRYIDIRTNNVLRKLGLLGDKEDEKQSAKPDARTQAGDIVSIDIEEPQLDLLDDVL

Assay [1] deals with Ndc80-myc (S. cerevisiae) (UniProt P40460).
Assay [2] addresses Spc25-myc (S. cerevisiae) (UniProt P40014).

These are yes or no findings as the source states them, for the method shown. Binding seen in cells or lysates may run through a third protein. Some results given as binding are weak or reduced against the parent protein; the word gives no strength. For part of these data: Sequences can lack the tags named with a protein.

Regarding Ctf19 (from UniProt Q02732 1-369), the binding entry (in the assay with Mtw1-myc (S. cerevisiae); in assay [1]) was “binds” each time.

B1: Mtw1-HA (protein, UniProt P39731 1-289)
chain: MSAPTMRSTSILTEHLGYPPISLVDDIINAVNEIMYKCTAAMEKYLLSKSKIGEEDYGEEIKSGVAKLESLLENSVDKNFDKLELYVLRNVLRIPEEYLDANVFRLENQKDLVIVDENELKKSEEKLREKVNDVELAFKKNEMLLKRVTKVKRLLFTIRGFKQKLNELLKCKDDVQLQKILESLKPIDDTMTLLTDSLRKLYVDSESTSSTEEVEALLQRLKTNGKQNNKDFRTRYIDIRTNNVLRKLGLLGDKEDEKQSAKPDARTQAGDIVSIDIEEPQLDLLDDVL
In the case of B1, the binding result in assay [2] is given as “binds”.
